Hit rate of the full screen: of about 140,000 compounds, about 4,300 (3.1%) were called active. This list was built around the results that the source calls inconclusive (neither active nor inactive); the mix of calls is not that of the screen.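 The calls were made as follows: active = readout at or below -70, meaning at least 70% loss of cells showing the perinucleolar compartment, a nuclear body marking cancer cells; inconclusive = readout between -30 and a set limit; inactive = the rest.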
Assay: High Content Assay for Compounds that inhibit the Assembly of the Perinucleolar Compartment;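 also: plate controls were DMSO wells for no effect and camptothecin positive control wells for full effect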
Conditions: PC3M PTB-GFP, PNC prevalence imaging, 16 h; at 10 µM; stronger effect = lower value
Summary of the method: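 Compounds are pinned in duplicate onto adhered PC3M cells stably expressing GFP-tagged PTB and incubated 16 h at 37 C. Cells are then fixed, nuclei stained with Hoechst, and PNC-positive cells counted.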

Row | Structure (SMILES) | activity change (PNC), negative = inhibition
1 | Cc1ccc(C)c(-c2nc3ccc(N)cc3[nH]2)c1 | inconclusive: -41.2%
2 | COc1cccc(N2CCN(C(c3ccccn3)c3nnnn3C(C)(C)C)CC2)c1 (stereo not given) | inconclusive: -30.2%
3 | CCOC(=O)C1CCN(C(=O)COc2cc(C)c(Br)c(C)c2)CC1 | inconclusive: -41.4%
4 | O=c1cc(N2CCOCC2)[nH]c(=O)n1Cc1ccc(F)cc1 | inconclusive: -80%
5 | O=C(CCS(=O)(=O)c1ccc(Br)cc1)NC1CCCC1 | inactive: 63.3%
6 | Cc1cc(NC(=O)CSc2nc(CCC3CCCC3)nc3ccccc23)no1 | inconclusive: -37.8%
7 | Cc1ccc(-c2ccnc3nc(Sc4ncc(C(F)(F)F)cc4Cl)nn23)cc1 | inconclusive: -43%
8 | Cc1cccc(N2C(=O)CC(Sc3ccccc3C(=O)O)C2=O)c1 (stereo not given) | inactive: -13.8%
9 | O=[N+]([O-])c1cc(C(F)(F)F)ccc1NCCc1c[nH]c2ccc(O)cc12 | inactive: -29.8%
10 | Cc1ccc(C)c(C(=O)CN2C(=O)NC3(CCC(C)CC3)C2=O)c1 (stereo not given) | inactive: -6.22%
11 | C=CCOc1cccc(C2C(C(=O)c3ccc(C)o3)=C(O)C(=O)N2c2nccs2)c1 (stereo not given) | inconclusive: -41%
12 | O=C(NC1CCCCCCC1)c1ccc2c(c1)OCO2 | inactive: -7.08%
13 | COc1ccc(C2C(CC(=O)O)=C(O)C(=O)N2c2ccccc2)cc1 (stereo not given) | inconclusive: -32.8%
14 | Cn1c(=O)c2c3c(sc2n2c(SCC(N)=O)nnc12)CC(C(C)(C)C)CC3 (stereo not given) | inconclusive: -34.7%
15 | CCOc1ccc(CN(C)CC(=O)Nc2cc(OC)c([N+](=O)[O-])cc2C)cc1 | inconclusive: -48.3%
16 | CCOC(=O)c1c(C)[nH]c(C(=O)COC(=O)CNC(=O)C2CCCCC2)c1C | inconclusive: -42.5%
17 | Cc1ccc(CNC(=O)CCSCCC(=O)NCc2ccc(C)cc2)cc1 | inactive: 52.8%
18 | Cc1nn(Cc2ccccc2Cl)c(C)c1C(=O)N1CCN(c2ccccc2)CC1 | inconclusive: -40.1%
19 | COc1cc(C(=O)Nc2nnc(C)s2)cc(OC)c1OC | inconclusive: -38.4%
20 | CCOC(=O)CS(=O)(=O)c1ccc(C(F)(F)F)cn1 | inconclusive: -31.8%
21 | N#CC1=C(N)OC2=C(C(=O)CCC2)C1C1CC=CCC1 (stereo not given) | inconclusive: -41.8%
22 | Cc1ccc(C(=O)CSc2nc3cc(S(=O)(=O)N4CCOCC4)ccc3o2)cc1 | inactive: 10.5%
23 | CCCCc1c(O)nc(SCC(=O)c2ccccc2)[nH]c1=O | inconclusive: -44.9%

Another view of 22 compounds above.
Row,Structure (SMILES),"activity change (PNC), negative = inhibition"
1,Cc1ccc(C)c(-c2nc3ccc(N)cc3[nH]2)c1,inconclusive: -41.2%
2,COc1cccc(N2CCN(C(c3ccccn3)c3nnnn3C(C)(C)C)CC2)c1 (stereo not given),inconclusive: -30.2%
3,CCOC(=O)C1CCN(C(=O)COc2cc(C)c(Br)c(C)c2)CC1,inconclusive: -41.4%
4,O=c1cc(N2CCOCC2)[nH]c(=O)n1Cc1ccc(F)cc1,inconclusive: -80%
5,O=C(CCS(=O)(=O)c1ccc(Br)cc1)NC1CCCC1,inactive: 63.3%
6,Cc1cc(NC(=O)CSc2nc(CCC3CCCC3)nc3ccccc23)no1,inconclusive: -37.8%
7,Cc1ccc(-c2ccnc3nc(Sc4ncc(C(F)(F)F)cc4Cl)nn23)cc1,inconclusive: -43%
8,Cc1cccc(N2C(=O)CC(Sc3ccccc3C(=O)O)C2=O)c1 (stereo not given),inactive: -13.8%
9,O=[N+]([O-])c1cc(C(F)(F)F)ccc1NCCc1c[nH]c2ccc(O)cc12,inactive: -29.8%
10,Cc1ccc(C)c(C(=O)CN2C(=O)NC3(CCC(C)CC3)C2=O)c1 (stereo not given),inactive: -6.22%
11,C=CCOc1cccc(C2C(C(=O)c3ccc(C)o3)=C(O)C(=O)N2c2nccs2)c1 (stereo not given),inconclusive: -41%
12,O=C(NC1CCCCCCC1)c1ccc2c(c1)OCO2,inactive: -7.08%
13,COc1ccc(C2C(CC(=O)O)=C(O)C(=O)N2c2ccccc2)cc1 (stereo not given),inconclusive: -32.8%
14,Cn1c(=O)c2c3c(sc2n2c(SCC(N)=O)nnc12)CC(C(C)(C)C)CC3 (stereo not given),inconclusive: -34.7%
15,CCOc1ccc(CN(C)CC(=O)Nc2cc(OC)c([N+](=O)[O-])cc2C)cc1,inconclusive: -48.3%
16,CCOC(=O)c1c(C)[nH]c(C(=O)COC(=O)CNC(=O)C2CCCCC2)c1C,inconclusive: -42.5%
17,Cc1ccc(CNC(=O)CCSCCC(=O)NCc2ccc(C)cc2)cc1,inactive: 52.8%
18,Cc1nn(Cc2ccccc2Cl)c(C)c1C(=O)N1CCN(c2ccccc2)CC1,inconclusive: -40.1%
19,COc1cc(C(=O)Nc2nnc(C)s2)cc(OC)c1OC,inconclusive: -38.4%
20,CCOC(=O)CS(=O)(=O)c1ccc(C(F)(F)F)cn1,inconclusive: -31.8%
21,N#CC1=C(N)OC2=C(C(=O)CCC2)C1C1CC=CCC1 (stereo not given),inconclusive: -41.8%
22,Cc1ccc(C(=O)CSc2nc3cc(S(=O)(=O)N4CCOCC4)ccc3o2)cc1,inactive: 10.5%

The listing continues:

Row | Structure (SMILES) | activity change (PNC), negative = inhibition
24 | Cc1c(Cl)cccc1NC(=O)CSCC(N)=O | inconclusive: -41.4%
25 | Cn1nc(C(F)(F)F)c(/C=N/OC(=O)c2ccccc2)c1Sc1ccc(Cl)cc1 | inconclusive: -40.4%
26 | COc1cccc(S(=O)(=O)Nc2ccc(C(=O)N3CCOCC3)cc2)c1 | inconclusive: -43.4%
27 | Cc1ccc(N2C(=O)Nc3ccc(Br)cc3C2(O)C(=O)NCCCN(C)C)cc1C (stereo not given) | inconclusive: -31.1%
28 | Cc1cccn2cc(CCNC(=O)c3ccc(Br)o3)nc12 | inconclusive: -44.6%
29 | O=C(c1cc(-n2cnnc2)ccc1Cl)N1CCN(c2nc(-c3ccccc3)cs2)CC1 | inconclusive: -78.7%
30 | Cc1ccc(S(=O)(=O)Cn2nnnc2CN2CCCC3(CCCCC3)C2)cc1 | inactive: 14.8%
31 | CC(=O)Nc1cc(C(=O)N2CCc3ccccc3C2)ccc1Sc1ccc(C)cc1 | inconclusive: -79.3%
32 | O=C(NC(NCc1cccnc1)C(Cl)(Cl)Cl)c1cccc2ccccc12 (stereo not given) | inactive: 15.6%
33 | CCC(C)NCCOc1cccc(Br)c1 (stereo not given) | inconclusive: -68.9%
34 | Cc1ccc(-n2c(SCC(N)=O)nc3c([nH]c4ccccc43)c2=O)cc1 | inconclusive: -39.3%
35 | COC(=O)c1sc(NC(=O)c2ccoc2C)nc1C | inactive: 3.5%
36 | O=S(=O)(c1ccc(NC(=S)N/N=C/c2ccc(N3CCOCC3)cc2)cc1)N1CCOCC1 | inactive: -12.9%
37 | CN1CCCN(Cc2ccccc2C(F)(F)F)CC1 | inconclusive: -40.6%
38 | CC(C)OC(=O)CSc1nc2ncc(Cl)cc2[nH]1 | inactive: -12.8%
39 | O=S(=O)(c1ccccc1)n1ccc(-c2cnc(-c3ccccc3)s2)n1 | inconclusive: -43.2%
40 | CCOCCCN(Cc1ccco1)C(=O)c1cc2c(=O)[nH]c3ccc(C)cc3c2s1 | active: -85%
41 | CCC(C)c1ccc(NC(=S)Nc2ccc(OC)cc2)cc1 (stereo not given) | inconclusive: -45%
42 | Cc1ccc(Nc2nnc(SCC3CCCCO3)s2)cc1 (stereo not given) | inconclusive: -43.9%
43 | CC1CCc2cc(F)ccc2N1C(=O)CSc1nnc2c(n1)[nH]c1ccccc12 (stereo not given) | inactive: 44%
44 | O=c1/c(=C/c2ccccn2)sc2n1CN(c1ccccc1)CN=2 | inconclusive: -44%
45 | COc1ccc2c(c1)-c1ccccc1S(=O)(=O)N2C(C)=O | active: -114%
46 | CC(C)C(C)(C#N)NC(=O)CSc1nc2scc(-c3ccccc3)c2c(=O)[nH]1 (stereo not given) | inconclusive: -42.2%

Row | Structure (SMILES) | activity change (PNC), negative = inhibition
47 | COc1ccc(NC(=O)C(=O)N/N=C/c2cc(C)n(-c3cccc(Cl)c3Cl)c2C)c(OC)c1 | inactive: -26.2%
48 | O=C(COC(=O)c1ccc2ncsc2c1)Nc1ncc(Cl)cc1Cl | active: -95.1%
49 | CNC(=S)N/N=C/c1cn(CCOc2cccc(OC)c2)c2ccccc12 | inactive: 16.1%
50 | O=C(CN1CCN(c2ccccc2O)CC1)Nc1ccc2c(c1)CCC2 | inconclusive: -50.3%
51 | COc1ccc(C2(CNC(=O)c3ccc(OC)c([N+](=O)[O-])c3)CCCCC2)cc1OC | inconclusive: -32.6%
52 | CCCCCC(=O)Nc1ccc(N2CCN(C(=O)CCC)CC2)cc1 | inconclusive: -37.2%
53 | O=C(NCCc1nc(-c2ccccc2)cs1)c1ccc(Br)cc1 | inactive: -10.6%
54 | O=C(CSc1nccc(-c2ccc(Br)cc2)n1)NCCc1ccccc1 | inconclusive: -61.4%
55 | Cc1cccc(C=Nc2ccc3c(c2)oc2ccccc23)c1O | inconclusive: -51.5%
56 | COc1ccc(C(C#N)Nc2ccccc2)cc1 (stereo not given) | inconclusive: -52%
57 | COc1ccc2c(c1)CCc1c(C(=O)N3CCCC3)noc1-2 | inconclusive: -45.3%
58 | CSc1nnc(-c2ccccc2)n1N | inconclusive: -41.9%
59 | COc1ccc(NC(=S)Nc2nc(CC(=O)Nc3ccccc3OC)cs2)cc1 | inconclusive: -33.9%
60 | O=C(CCSc1nnc2scc(-c3ccccc3)n12)NCc1ccc2c(c1)OCO2 | inactive: 36.7%
61 | Cc1ccc(O)c(C(=O)c2cnc3c(c2)COc2ccccc2-3)c1 | inconclusive: -77.9%
62 | O=S(=O)(CCn1cccc1)CCn1cccc1 | active: -100%
63 | CCOC(=O)C(=CNc1cc(C)ccc1C)C(=O)OCC | inconclusive: -67.7%
64 | Cc1cc(NC(=O)CCC(=O)N(c2ccc(F)cc2)C(C(=O)NC2CCCC2)c2ccncc2)no1 (stereo not given) | inconclusive: -66.3%
65 | CC(C)CCNC(=O)C(C)N(Cc1ccc(F)cc1)C(=O)c1ccc(CN2CCCCC2)o1 (stereo not given) | inconclusive: -59.1%
66 | COc1cc2c(N3CCOCC3)cc(O)c(CC(=O)Nc3ccccc3)c2cc1OC | inconclusive: -43.3%
67 | O=C1CC(N2CCN(c3ccccc3)CC2)C(=O)N1c1ccc2c(c1)OCCO2 (stereo not given) | inactive: -0.428%
68 | Cc1ccc(/C=N/NC(=O)CC(=O)NCc2cccnc2)cc1 | inactive: 1.13%
69 | COc1cc(-c2nnc(-c3ccccc3)o2)cc(OC)c1OC | inactive: 14.1%

Row | Structure (SMILES) | activity change (PNC), negative = inhibition
70 | O=[N+]([O-])c1ccc(N2CCN(C(=S)NC3CCCCC3)CC2)cc1 | inactive: -9.7%
71 | O=C(CSc1nnc(-c2ccncc2)n1Cc1ccco1)Nc1nccs1 | active: -100%
72 | Cc1ccc(-c2nnc(SCC(=O)N3CCN(c4ccccc4)CC3)o2)cc1 | inconclusive: -62.7%
73 | NC(=O)CC1NC(=O)c2cc([N+](=O)[O-])cc(I)c2OCCC(C(N)=O)NC(=O)[C@@H]2CCCN2C1=O (stereo not given in full) | inactive: 27.2%
74 | CCC(=O)Nc1ccc(S(=O)(=O)Nc2ncccn2)cc1 | inconclusive: -34.5%
75 | O=C(O)C(Cc1ccccc1)n1cccc1 (stereo not given) | inconclusive: -55.6%
76 | COC(=O)c1c(O)cc(C(C)(C)C)n(-c2ccc(F)cc2)c1=O | inconclusive: -77.2%
77 | Cc1ccc(-n2c(SCC(=O)NCC3CCCO3)nc3n[nH]c(C)c3c2=N)cc1Cl (stereo not given) | inconclusive: -47.9%
78 | Cc1ccc2cc(CN(Cc3ccc4c(c3)OCO4)Cc3nnnn3Cc3ccco3)c(=O)[nH]c2c1C | inactive: 15.2%
79 | Cc1ccc(CN=C2Nc3ccccc3CS2)cc1 | inconclusive: -35.4%
80 | Cc1ccc(C(=O)OCC2OC3OC(C)(C)OC3C2O)cc1 (stereo not given) | inactive: -29.6%
81 | COC(=O)c1oc2ccccc2c1NC(=O)CN1CCCC1 | inconclusive: -42.6%
82 | Cc1cccc(CSc2ncnc3nc[nH]c23)c1 | inconclusive: -32.1%
83 | Cc1ccc(N=Nc2c(C)[nH][nH]c2=O)c(C)c1 | inactive: 11.5%
84 | c1ccc(Cc2nnc3sc(-c4cccnc4)nn23)cc1 | inconclusive: -45.8%
85 | O=C(NCCCO)Nc1ccc2nc(-c3ccco3)c(-c3ccco3)nc2c1 | inconclusive: -30.7%
86 | COc1cccc(C2CC(c3ccc(C)cc3)Nc3nc(N)nn32)c1 (stereo not given) | inconclusive: -41.3%
87 | O=C(NCc1ccccn1)c1ccc(Cl)s1 | inconclusive: -35.7%
88 | Cc1cc(N/N=C/c2ccc(O)c(C)c2O)nc(-c2ccccc2O)n1 | inactive: -22.2%
89 | Cc1ccc(-n2nnnc2SCC(=O)Nc2c(C)n(C)n(-c3ccccc3)c2=O)cc1 | inconclusive: -35.9%
90 | O=C(c1ccccc1)c1nc2ccccc2n(CCCn2c(=O)c(C(=O)c3ccccc3)nc3ccccc32)c1=O | inconclusive: -41.1%

— PubChem BioAssay AID2417 (National Center for Advancing Translational Sciences (NCATS), 2010)
